Data: PubChem BioAssay AID588590 (National Center for Advancing Translational Sciences (NCATS), 2011)
Hit rate of the full screen: of about 390,000 compounds, about 4,000 (1%) were called active. The shares of active, inactive and inconclusive entries below differ from those in the screen. The call rests on the fitted dose curve; in most records, active means well fitted inhibition curve with a large enough effect; inconclusive means small, poorly fitted or top-dose-only effect, or another doubt; inactive means no such curve, though single readings can be large or run the other way. Potencies beside an inconclusive call are fits to weak or partial responses and may not hold up.

Amino acid sequences for entries named in this document (tags omitted). A change or cut given only in a name is not applied to a line headed by its entry.
UniProt Q9UNA4: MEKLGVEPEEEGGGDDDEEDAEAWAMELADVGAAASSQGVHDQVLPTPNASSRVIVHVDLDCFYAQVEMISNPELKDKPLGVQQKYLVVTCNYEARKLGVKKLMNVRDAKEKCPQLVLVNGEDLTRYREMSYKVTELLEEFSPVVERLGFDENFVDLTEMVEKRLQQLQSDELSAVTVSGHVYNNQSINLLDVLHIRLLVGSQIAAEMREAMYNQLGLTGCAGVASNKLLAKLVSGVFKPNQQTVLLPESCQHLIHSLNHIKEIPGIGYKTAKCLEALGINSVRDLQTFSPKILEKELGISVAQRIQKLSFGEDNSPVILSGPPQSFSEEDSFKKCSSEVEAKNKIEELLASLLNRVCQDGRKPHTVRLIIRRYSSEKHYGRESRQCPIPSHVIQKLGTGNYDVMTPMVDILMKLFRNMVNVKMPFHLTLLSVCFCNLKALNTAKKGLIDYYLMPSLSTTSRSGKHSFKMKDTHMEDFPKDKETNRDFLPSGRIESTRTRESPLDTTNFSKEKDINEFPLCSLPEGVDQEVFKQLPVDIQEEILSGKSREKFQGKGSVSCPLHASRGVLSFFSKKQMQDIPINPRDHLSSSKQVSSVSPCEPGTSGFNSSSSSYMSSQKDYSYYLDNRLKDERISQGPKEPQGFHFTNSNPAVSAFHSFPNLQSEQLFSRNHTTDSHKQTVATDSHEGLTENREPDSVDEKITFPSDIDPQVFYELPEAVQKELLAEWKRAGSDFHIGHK

Target: DNA polymerase iota (Homo sapiens) (UniProt Q9UNA4)
Test: qHTS for Inhibitors of Polymerase Iota
Details: Pol iota fluorescent replication assay, 10 min; series mostly up to 115 µM
In short: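 Pol iota at 10 nM preincubated 15 min with compounds at room temperature; reaction started with fluorescent substrate, 50 nM final. Fluorescence read kinetically at 0 and 10 min; buffer-only wells as negative control.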
Potency means the concentration at half of the fitted maximal effect.

Structure (SMILES) | Potency
CCOc1ccc(C2C(C(=O)Nc3ccccc3C)=C(C)Nc3nnnn32)cc1 (stereo not given) | inactive
O=C(Nc1ccc(S(=O)(=O)Nc2ccnn2-c2ccccc2)cc1)C(F)(F)F | inconclusive: 6.31 µM [inhibitor, partial curve]
COc1cccc(C(=O)CN(C(=O)c2ccc(Cl)c(Cl)c2)N2C(=O)c3ccccc3C2=O)c1 | inconclusive: 70.8 µM [inhibitor, partial curve, poor fit]
COC(=O)c1ccc(COc2ccc3c(C)c(C)c(=O)oc3c2C)o1 | inactive
CCC[n+]1c2ccccc2cc2ccccc21 | inconclusive: 17.8 µM [inhibitor, partial curve, poor fit]
COc1ccc(NC(=O)CSc2nnc(-c3ccco3)c(-c3ccco3)n2)cc1OC | inconclusive: 14.1 µM [inhibitor, full curve, poor fit]
C=C(NNC(C)=O)c1ccc(O)cc1 | inactive
CCOc1ccc(OCC)c(NC(=O)C2CCCN(S(=O)(=O)c3cc(Br)cc4c3N(C(=O)CC)CC4)C2)c1 (stereo not given) | active: 89.1 µM
Cc1occc1C(=O)N(Cc1nc(-c2ccccc2)no1)C(C)C | inconclusive: 79.4 µM [inhibitor, single point]
COC(=O)COc1ccc2oc(=O)cc(C)c2c1 | inconclusive: 112 µM [inhibitor, single point]
CCn1c(CN2CCOCC2)nc2cc(NC(=O)c3cccc([N+](=O)[O-])c3)ccc21 | inactive
CC1CCN(C(=O)CSc2nc3[nH]ncc3c(=O)[nH]2)CC1 | inactive
COc1ccc(NC(=O)CSc2ncc3c(n2)-c2ccccc2N(Cc2ccc(C)cc2)S3(=O)=O)cc1Cl | inactive
Cc1noc(C(=O)NCc2ccccc2)c1Cl | inconclusive: 35.5 µM [inhibitor, partial curve, poor fit]
CN(C)/[N+]([O-])=N/Oc1ccc([N+](=O)[O-])cc1C(F)(F)F | inactive
O=C(CCC1N=C2c3ccccc3N=C(SCC(=O)Nc3cccc(Cl)c3)N2C1=O)NCc1ccco1 (stereo not given) | inconclusive: 0.562 µM [inhibitor, full curve, poor fit]
COc1cccc(Nc2ncccc2C(=O)O)c1 | inconclusive: 89.1 µM [inhibitor, partial curve]
CC1CCN(S(=O)(=O)c2ccc(C(=O)Nc3nnc(-c4ccco4)o3)cc2)CC1 | inconclusive: 20 µM [inhibitor, partial curve]
O=[N+]([O-])c1ccccc1CNCCCCCO | inactive
O=C(CSc1ncc(-c2ccccc2)[nH]1)Nc1ccccc1 | inactive
Cc1ccc(O)c(C(=O)/C=C/c2ccc3c(c2)OCCCO3)c1 | inconclusive: 20 µM [inhibitor, partial curve]
CCCn1nnnc1NCc1ccccc1OCc1ccc(F)cc1 | inconclusive: 56.2 µM [inhibitor, partial curve, poor fit]
O=C(O)c1ccccc1N/C=C\[N+](=O)[O-] | inconclusive: 20 µM [inhibitor, full curve]
Cc1c(C(=O)N2CCN(S(C)(=O)=O)CC2)oc2ccccc12 | inconclusive: 89.1 µM [inhibitor, partial curve, poor fit]

Reformatted with tabs: part of the list above
Structure (SMILES)	Potency
O=[N+]([O-])c1ccccc1CNCCCCCO	inactive
O=C(CSc1ncc(-c2ccccc2)[nH]1)Nc1ccccc1	inactive
Cc1ccc(O)c(C(=O)/C=C/c2ccc3c(c2)OCCCO3)c1	inconclusive: 20 µM [inhibitor, partial curve]

(further entries)

Structure (SMILES) | Potency
O=C(CSc1nnnn1-c1ccccc1)NCc1ccco1 | inconclusive: 11.2 µM [inhibitor, partial curve, poor fit]
CCCCOc1ccccc1C1CC(=O)Nc2ccc3ccccc3c21 (stereo not given) | inactive
O=C(NCC1CCCO1)c1cccc(Br)c1 (stereo not given) | inconclusive: 89.1 µM [inhibitor, partial curve]
CCN(CC)CCNC(=O)c1ccc(NC(=O)/C=C/c2cc(OC)c(OC)c(OC)c2)cc1 | inconclusive: 20 µM [inhibitor, partial curve, poor fit]
CCc1c(C)c2ccc(O)c(CN3CCN(c4cc(Cl)ccc4C)CC3)c2oc1=O | inactive
CC(=O)Oc1ccc2c(C)c(CC(=O)N3CCN(C(=O)C4COc5ccccc5O4)CC3)c(=O)oc2c1C (stereo not given) | inconclusive: 89.1 µM [inhibitor, single point]
Cc1ccnc(NC(=O)Nc2ccc3c(c2)N(C)C(=O)CS3)c1 | inactive
C=CCc1cccc(/C=N/n2cnnc2)c1O | inactive
O=C(Nc1cc([N+](=O)[O-])ccc1O)c1cccc(C(=O)Nc2cc([N+](=O)[O-])ccc2O)c1 | inactive
Cc1ccc(CNC(=O)C(=O)Nc2c3c(nn2-c2ccc(F)cc2)CSC3)cc1 | inactive
CC(=O)c1cccc(NC(=O)NC2CCCCC2)c1 | inconclusive: 100 µM [inhibitor, single point]
Cc1ccc(S(=O)(=O)N2CCC(C(=O)OC3CCOC3=O)CC2)cc1C (stereo not given) | inactive
c1ccc(-c2nnc3sc(Cc4cccs4)nn23)cc1 | inconclusive: 14.1 µM [inhibitor, full curve, poor fit]
O=c1cc(CSc2nnc(-c3cccs3)n2Cc2ccccc2)nc2sc3ccccc3n12 | active: 12.6 µM
CN(C)CC(CCC(CN(C)C)C(=O)c1ccccc1)C(=O)c1ccccc1 (stereo not given) | active: 22.4 µM
Cc1ccc(N(CC(=O)N2CCN(c3cc(C)ccc3C)CC2)S(=O)(=O)c2c(C)nn(C)c2C)cc1 | inconclusive: 2.24 µM [inhibitor, full curve, poor fit]
Cc1ccc(-n2cc(CNCCn3nc(C)cc3C)c(-c3ccc(F)cc3)n2)cc1 | inconclusive: 11.2 µM [inhibitor, partial curve]
COc1ccc(CNC(=O)Cn2c(=O)oc3cc(S(=O)(=O)NCc4ccccc4)ccc32)cc1 | inactive
Cc1ccccc1NC(=O)C(=O)NCC(c1ccc2c(c1)OCO2)N1CCN(c2ccccc2)CC1 (stereo not given) | inactive
O=C(Cn1nc(C(F)(F)F)c2c1CCCC2)Nc1cccc(Cl)c1 | inconclusive: 44.7 µM [inhibitor, single point]
COC(=O)CSc1nc2nc(-c3cccs3)cc(C(F)(F)F)c2c(=O)[nH]1 | inactive
COc1ccc2ccccc2c1C1CC(=O)N2CN(Cc3ccco3)CSC2=C1C#N (stereo not given) | inconclusive: 10 µM [inhibitor, single point]
O=C(O)c1cnn2c1C(=O)N(Cc1cccs1)CC2 | inactive
O=C(COc1ccc(S(=O)(=O)N2CCc3ccccc32)cc1Cl)NCc1ccccn1 | inconclusive: 14.1 µM [inhibitor, partial curve, poor fit]

2 entries drawn at random from the list so far:
Structure (SMILES) | Potency
Cc1ccc(-n2cc(CNCCn3nc(C)cc3C)c(-c3ccc(F)cc3)n2)cc1 | inconclusive: 11.2 µM [inhibitor, partial curve]
c1ccc(-c2nnc3sc(Cc4cccs4)nn23)cc1 | inconclusive: 14.1 µM [inhibitor, full curve, poor fit]

Further records

Structure (SMILES) | Potency
Oc1cccnc1SCc1ccccc1 | inconclusive: 1.78 µM [inhibitor, full curve, poor fit]
Cc1ccccc1C1C(C#N)=C(N)N(N(C)C)C2=C1C(=O)CC(C)(C)C2 (stereo not given) | inconclusive: 89.1 µM [inhibitor, single point]
Cc1ccc(C)c(S(=O)(=O)Nc2ccc(O)c3ccccc23)c1 | inconclusive: 39.8 µM [inhibitor, single point]
COc1ccccc1CNC(=O)COC(=O)c1ccc([N+](=O)[O-])o1 | inconclusive: 28.2 µM [inhibitor, full curve]
Cc1nn(CC(=O)NC(C)CCc2ccccc2)c(=O)c2nn(-c3ccccc3)c(C)c12 (stereo not given) | inconclusive: 89.1 µM [inhibitor, single point]
CCCNc1c(F)c(F)c2c(C)c3ccccc3nc2c1F | active: 7.94 µM
C#CCOC(=O)CCCNc1ccc([N+](=O)[O-])cc1[N+](=O)[O-] | inconclusive: 25.1 µM [inhibitor, full curve, poor fit]
CN(C)S(=O)(=O)c1cccc(C(=O)OCC(=O)Nc2ccccc2OC(F)F)c1 | inconclusive: 1.78 µM [inhibitor, partial curve, poor fit]
COC(=O)c1ccc2c(=O)n(CCCCCC(=O)NCCc3ccccc3)c(=O)[nH]c2c1 | inactive
O=C(/C=C/Nc1ccc(S(=O)(=O)Nc2ncccn2)cc1)c1ccc2ccccc2c1 | inconclusive: 79.4 µM [inhibitor, partial curve, poor fit]
CC1=NN(c2ccc([N+](=O)[O-])cc2)C(=O)/C1=C\N(C)C | inactive
Nc1c(C(=O)Nc2ccccc2Br)sc2nc(-c3cccs3)ccc12 | inconclusive: 89.1 µM [inhibitor, single point]
CCC(Sc1nc(C)cc(=O)[nH]1)C(=O)Nc1nc2c(s1)CCCC2 (stereo not given) | inconclusive: 25.1 µM [inhibitor, partial curve, poor fit]
O=C(O)c1cccc(Cn2c(Cl)c(/C=N/NC(=O)c3ccco3)sc2=O)c1 | inconclusive: 31.6 µM [inhibitor, single point]
O=C(CCCN1C(=O)/C(=C/c2cccc(Br)c2)SC1=S)N1CCOCC1 | inconclusive: 28.2 µM [inhibitor, partial curve, poor fit]
CCCCNc1c(-c2ccc(SC3CCCCC3)cc2)nc2cnccn12 | inconclusive: 15.8 µM [inhibitor, partial curve, poor fit]
COc1ccc(-n2c(-c3ccc(C)cc3)cc3c2CC(C)(C)CC3=O)c(OC)c1 | inactive
Cc1ccn2c(=O)nc(SCC(=O)NCc3ccc4c(c3)OCO4)nc2c1 | active: 44.7 µM
CN1C(=O)c2ccccc2Sc2ccc(NC(=O)NCc3cccc(Cl)c3)cc21 | inactive
COC(=O)c1sccc1NC(=O)c1csc(C)c1 | inconclusive: 17.8 µM [inhibitor, partial curve, poor fit]
O=c1oc2cc(O)ccc2cc1-c1nnc(Nc2ccccc2F)s1 | inconclusive: 89.1 µM [inhibitor, partial curve, poor fit]
Cc1ccc(C)c(NC(=O)C(C)N2C(=O)c3ccccc3C2=O)c1 (stereo not given) | inactive
